Results taken from patent US11033596B2, “Antioxidant, anti-inflammatory compositions and uses thereof” (Malaysian Palm Oil Board, priority 2017, dated 2021).

Test system: Granulocytes/polymorphonuclear (PMN) cells
Assay: H2O2 measurement, cell-based antioxidant protection in granulocytes/polymorphonuclear (PMN) cells assay
Source text: H2O2 Measurement (Cell-Based Antioxidant Protection in Granulocytesipolymorphonuclear—PMN Cells Assay)

SMILES: O=C(O)C1=CC(=O)[C@@H](O)[C@H](O)C1 [3-dehydroshikimic acid]
- Enhancement of anti-inflammatory and anti-oxidative activity of other components: enhancement effect could be seen
- Inhibitory action (in words): shows inhibitory action
